From PubChem BioAssay AID2685 (National Center for Advancing Translational Sciences (NCATS), 2010)
The other results are listed elsewhere or left out. The main result of the screen is listed elsewhere. These columns were measured beside it and carry no call. The list favours compounds with an active or inconclusive main result. Words in brackets tell the shape of the fitted curve; partial curves, single points and poor fits give uncertain potencies.

Assay: qHTS Assay for Lipid Storage Modulators in Drosophila S3 Cells;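 as to cell number change: cells counted by Cell Tracker Red CMTPX staining in the red channel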
Details: BODIPY lipid droplet fluorescence, 18-24 h; for cell number change: measured here: cell count max response, cells fed with added oleic acid
In short: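 Laser-scanning cytometry quantifies lipid droplet accumulation (500–530 nm total intensity; droplet/cell object ratio) in oleic acid-fed (400 uM added) Drosophila S3 cells treated with a concentration series. 20 uM Triacsin C defined 100% inhibition.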

[1] = measured here: lipid fluorescence (Fed channel) AC50, cells fed with added oleic acid
[2] = measured here: cell number channel AC50, cells fed with added oleic acid

| Compound | cell number change [%] | AC50 [1] | AC50 [2] |
| --- | --- | --- | --- |
| Cc1cc(N2CCN(C(=O)c3ccco3)CC2)n2ncc(-c3ccccc3)c2n1 | -6.37 | 0.103 µM [rising, full curve, poor fit] | – |
| COc1ccc(-c2cc(C(F)(F)F)nc(S(=O)(=O)CCC(=O)N3CCOCC3)n2)cc1 | -46.3 | 29.1 µM [falling, single point] | 0.164 µM [falling, full curve, poor fit] |
| COc1cccc(CN2CCNC(=O)C2CC(=O)NC2CCCC2)c1OC (stereo unspecified) | – | – | 0.13 µM [falling, full curve, poor fit] |
| CN(Cc1ccccc1)c1oc(-c2ccco2)nc1C#N | 10.8 | 3.66 µM [rising, single point] | – |
| CCOC(=O)C1CCCN(c2cc(NCCCO)c([N+](=O)[O-])c3nonc23)C1 (stereo unspecified) | 9.21 | – | – |
| CCOC(=O)C1(Cc2ccccc2C(F)(F)F)CCN(Cc2ccon2)CC1 | -6.78 | – | – |
| CCOc1ccc(C(=O)C(C)=O)c(OCC)c1 | 1.66 | 25.9 µM [rising, single point] | – |
| COc1ccc(CC(=O)OCC(=O)N(CC(C)C)c2c(N)n(Cc3ccccc3)c(=O)[nH]c2=O)cc1 | 1.27 | 20.6 µM [falling, single point] | – |
| COc1ccc(NC(=O)COC(=O)Cc2c[nH]c3ccccc23)cc1OC | – | 0.291 µM [rising, partial curve] | 0.651 µM [rising, partial curve] |
| CCOC(=O)c1cnc2c(-c3ccc(Cl)cc3)c(C)nn2c1N | 2.05 | – | 6.51 µM [rising, single point] |
| CCN1CCN(Cc2nc3ccc([N+](=O)[O-])cc3c(=O)n2-c2ccc(OC)cc2OC)CC1 | 2.2 | 6.51 µM [rising, single point] | – |
| Cc1ccc(-c2nc3ccccc3s2)cc1NC(=O)c1cc(-n2cnnc2)ccc1Cl | -0.828 | 0.058 µM [falling, full curve, poor fit] | – |
| CCOc1ccccc1C(=O)Nc1ccc(C(=O)c2ccccc2)cc1 | -30.5 | 6.51 µM [falling, single point] | 5.17 µM [falling, full curve, poor fit] |
| O=C(CCc1ccccc1Cl)Nc1cccc(S(=O)(=O)N2CCCC2)c1 | 33.3 | 6.51 µM [falling, partial curve] | – |
| C=CCn1c(SCC(=O)NCCOC)nc2scc(-c3ccco3)c2c1=O | 34.4 | – | 11.6 µM [rising, partial curve, poor fit] |
| Cc1cc(C)c2c3c(sc2n1)C(=O)N(C)CC(=O)N3 | 0.762 | 0.082 µM [falling, full curve, poor fit] | 0.116 µM [falling, full curve, poor fit] |
| COC(=O)c1nn(-c2ccccc2)c(Sc2ccc(Cl)cc2)c1/C=N/O | – | 18.4 µM [rising, single point] | – |
| Cc1cc(C(=O)COc2ccccc2[N+](=O)[O-])c(C)n1C1CC1 | 13.4 | – | 6.51 µM [rising, single point] |
| CS(=O)(=O)N1CCN(CC(=O)NC2CCCCC2)CC1 | -28.4 | 25.9 µM [falling, single point] | – |
| CC1CCCCC1NC(=O)COc1ccccc1C#N (stereo unspecified) | -14.7 | – | – |

| Compound | cell number change [%] | AC50 [1] | AC50 [2] |
| --- | --- | --- | --- |
| CC(=O)Nc1ccc(CC(=O)NCCC(c2ccccc2)c2ccccc2)cc1 | -3.75 | – | – |
| N#Cc1ccc(S(=O)(=O)N2CCN(CC(=O)NCC3(N4CCOCC4)CCCCC3)CC2)cc1 | -3.56 | 0.116 µM [rising, full curve, poor fit] | – |
| COCCOC(=O)C1=C(C)NC(=O)NC1/C=C/c1ccccc1 (stereo unspecified) | -2.7 | 0.731 µM [rising, full curve] | 0.411 µM [rising, full curve] |
| Cc1ccnc(SCc2cc(=O)c(OC(=O)c3cc([N+](=O)[O-])ccc3Cl)co2)n1 | 45.7 | 9.2 µM [rising, partial curve] | 16.4 µM [rising, partial curve] |
| COc1ccc(Cc2noc(-c3ccc(OC)c(OC)c3)n2)cc1OC | -10.7 | 2.31 µM [rising, full curve] | – |
| Cc1cc(C)c(OCCNCc2ccccc2)c(C)c1 | 4.99 | 6.51 µM [rising, single point] | – |
| CCc1ccc2oc(-c3cc(N)ccc3Cl)nc2c1 | -55.4 | – | 18.4 µM [falling, single point] |
| C=CCN(C(=O)CNC(=O)c1ccco1)C(C(=O)NC1CCCCC1)c1ccc(OC)cc1OC (stereo unspecified) | -35.2 | 0.092 µM [falling, partial curve, poor fit] | 29.1 µM [falling, single point] |
| CC(=O)OCCSc1c(-c2ccccc2)c2cc(Cl)ccc2[nH]c1=O | -38.2 | – | 13 µM [falling, single point] |
| CCc1cc2c(SCC(=O)Nc3ccc(NC(C)=O)cc3)ncnc2s1 | -14.6 | – | 0.82 µM [rising, single point] |
| COc1cc(OC)c(C(=O)N2CCN(c3ccccn3)CC2)cc1OC | -19.9 | – | – |
| Cc1ccc2sc(N(CCCN(C)C)C(=O)c3ccc(S(=O)(=O)N(C)C4CCCCC4)cc3)nc2c1C | -32.8 | – | 23.1 µM [falling, single point] |
| CCS(=O)(=O)N1CCN(C(=O)COc2ccc(-c3ccccc3)cc2)CC1 | – | 18.4 µM [rising, partial curve] | – |
| Cc1ccccc1Nc1nc(N)nc(COC(=O)c2cccc(S(=O)(=O)N(C)C)c2)n1 | 34.8 | 6.51 µM [rising, partial curve] | 8.2 µM [rising, partial curve] |
| O=S(=O)(NCc1cccnc1)c1ccc(Br)s1 | -17.2 | 0.411 µM [rising, full curve, poor fit] | 0.58 µM [falling, full curve, poor fit] |
| CCOc1nc(NCCN2CCOCC2)nc(NC(C)C)n1 | 1.92 | 0.731 µM [rising, single point] | – |
| Cc1cc(NC(=O)CSc2nc(N)c(NC(=O)c3ccccc3F)c(=O)[nH]2)no1 | 26.1 | 29.1 µM [rising, single point] | – |
| COc1ccccc1CNC(=O)CN(C)S(=O)(=O)c1ccc2c(c1)n(C)c(=O)c(=O)n2C | -7.78 | 6.51 µM [falling, single point] | – |
| c1ccc(-c2nnc3sc(-c4csc5c4CCCC5)nn23)cc1 | -83.6 | 29.1 µM [falling, single point] | 29.1 µM [falling, single point] |
| COc1cccc(CNC(=O)C2CCCN(S(=O)(=O)c3cccc4nonc34)C2)c1 (stereo unspecified) | 106 | 1.16 µM [rising, full curve] | 11.6 µM [rising, partial curve] |

2 entries drawn at random from those above, as already listed:

| Compound | cell number change [%] | AC50 [1] | AC50 [2] |
| --- | --- | --- | --- |
| CCOc1nc(NCCN2CCOCC2)nc(NC(C)C)n1 | 1.92 | 0.731 µM [rising, single point] | – |
| Cc1cc(C)c(OCCNCc2ccccc2)c(C)c1 | 4.99 | 6.51 µM [rising, single point] | – |

Next part:

| Compound | cell number change [%] | AC50 [1] | AC50 [2] |
| --- | --- | --- | --- |
| O=C(Nc1ccc([N+](=O)[O-])cc1)C1CC12CCC2 (stereo unspecified) | -14.8 | – | – |
| CC(=O)Nc1ccc(S(=O)(=O)N2CCSC2c2ccc(Cl)cc2)cc1 (stereo unspecified) | -25.8 | 0.092 µM [falling, full curve, poor fit] | – |
| COC(=O)c1sccc1NC(=O)Nc1ccc(C)c(C)c1 | -2.6 | – | – |
| C=CCC(O)c1c(-c2ccccc2)nn(C)c1Cl (stereo unspecified) | 0.271 | – | – |
| CN1Cc2sc(N)c(C#N)c2CC1(C)C | 21.2 | 16.4 µM [rising, single point] | – |
| O=C(c1ccco1)N1CCCC(c2nc3c(nnn3Cc3cccc(Cl)c3)c(=O)[nH]2)C1 (stereo unspecified) | 6.84 | 6.51 µM [rising, single point] | – |
| Cc1cc(Cl)c(OCCCNC2CCCC2)c(Br)c1 | 2.07 | – | – |
| CN1C(=O)/C(=C/c2ccc(C(=O)NC3CCCC3)cc2)Oc2ccccc21 | -22.7 | 1.46 µM [falling, partial curve, poor fit] | – |
| C/C(=N\Nc1ncc(Cl)cc1Cl)c1ccc(OC(F)F)cc1 | 15.1 | 5.17 µM [rising, partial curve] | – |
| Cc1cccc(C(=O)Nc2ccccc2SCC(=O)Nc2ccc(C)c(Cl)c2)c1 | -22.3 | 10.3 µM [falling, partial curve, poor fit] | – |
| O=c1c(O[C@H]2O[C@@H](CO)[C@H](O)[C@@H](O)[C@@H]2O)c(-c2ccc(O)cc2)oc2cc(O)cc(O)c12 | 18.5 | 3.66 µM [rising, full curve] | – |
| COc1cc(-c2nc3ccccn3c2/N=C/c2cc(OC)c(O)cc2Cl)ccc1O | 24.1 | – | – |
| COc1ccc(NC2CCCN(C(=O)c3cccnc3SC)C2)cc1OC (stereo unspecified) | -13.2 | 0.58 µM [rising, single point] | – |
| CCN(CCn1cccn1)C(=O)C1CCC(=O)N(CC2CCCCC2)C1 (stereo unspecified) | -6.57 | 0.58 µM [rising, single point] | – |
| CCCCn1c(N)c(N(CCOC)C(=O)c2cccc(S(=O)(=O)N(C)c3ccccc3)c2)c(=O)[nH]c1=O | 48.3 | 6.51 µM [rising, single point] | 8.2 µM [rising, partial curve] |
| CC(C)N1CSC(=S)N(Cc2ccccc2)C1 | -18.8 | 29.1 µM [falling, single point] | – |
| Cn1c(C(=O)N2CCC(C(=O)N3CCN(Cc4ccc5c(c4)OCO5)CC3)CC2)cc2sccc21 | 2.57 | 29.1 µM [falling, single point] | – |
| CC(C)c1ccc(NC(=O)c2cc(S(=O)(=O)N3CCCC3)c[nH]2)cc1 | 16.8 | 0.92 µM [falling, full curve, poor fit] | – |
| CCOC(=O)CN(c1cccc(C(C)=O)c1)S(C)(=O)=O | -3.24 | 6.51 µM [rising, single point] | – |
